The conditions of the data set: storage time; solid crystalline form.

Each structure is given as a SMILES string.

As to `Cc1ccc(NC(=O)c2ccc(CN3CCN(C)CC3)cc2)cc1Nc1nccc(-c2cccnc2)n1` [Form-SA, 4-[(4-Methyl-1-piperazinyl)methyl]-N-[4-methyl-3-[[4-(3-pyridinyl)-2-pyrimidinyl]amino]-phenyl]benzamide methanesulfonate], the “adequately stable to handle and store without any significant or measurable change in morphology and physicochemical characteristics” value is given as “more than 6 months”.

Values taken from patent US20160122315A1, “CRYSTALLINE IMATINIB MESYLATE PROCESS” (SHILPA MEDICARE LIMITED, priority 2013, published 2016).
